Reference: PubChem BioAssay AID1159591 (NIAID, 2016)
Test: 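Which TLR signalling genes macrophages need for R848-driven Tnf promoter activity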. Cell system: mouse RAW264.7 G9 macrophage reporter clone (GFP-p65, Tnf promoter-mCherry). Reagents: single siRNA against mouse genes. Timing: cells assayed 48 to 72 hours after siRNA transfection; R848 for 16 hours before fixing. Conditions: R848 (TLR7/8 agonist) for 16 hours before fixation; dose not given. Detection: 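mCherry Tnf promoter reporter in nuclei imaged after 16 hours of R848, background removed, robust z relative to non-targeting controls using plate median and MAD, replicate average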. Reading the numbers: mean Tnf reporter z-score: higher = stronger Tnf promoter reporter signal than controls. Call rule: 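Activity score from absolute z: steps above 1, 1.5, 2 and 2.5 give 25 to 100; active cut not stated, but active genes here sit near z -1.5 or below, or 1.5 or above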. Calls: active = reporter clearly up or down; inactive = little reporter change.
This is one part, drawn at random, of 756 reagents tested. Over the whole deposit, 130 (17%) got an active call. 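Active calls include both lower and higher Tnf reporter signal.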 The numbers tell different reagents against one gene apart. Not given: the amount of reagent.

| gene symbol | reagent no. | mean Tnf reporter z-score | Outcome |
| --- | --- | --- | --- |
| Ikbke (inhibitor of kappaB kinase epsilon) | 1 | -0.982 | inactive |
| Ikbke (inhibitor of kappaB kinase epsilon) | 2 | -2.19 | active |
| Ikbke (inhibitor of kappaB kinase epsilon) | 3 | -0.538 | inactive |
| Ikbke (inhibitor of kappaB kinase epsilon) | 4 | -1.08 | inactive |
| Ikbke (inhibitor of kappaB kinase epsilon) | 5 | -0.158 | inactive |
| Ikbke (inhibitor of kappaB kinase epsilon) | 6 | -1.81 | active |
| Cxcl11 (chemokine (C-X-C motif) ligand 11) | 1 | -0.609 | inactive |
| Cxcl11 (chemokine (C-X-C motif) ligand 11) | 2 | -0.697 | inactive |
| Cxcl11 (chemokine (C-X-C motif) ligand 11) | 3 | -0.212 | inactive |
| Cxcl11 (chemokine (C-X-C motif) ligand 11) | 4 | 0.273 | inactive |
| Cxcl11 (chemokine (C-X-C motif) ligand 11) | 5 | -1.55 | active |
| Cxcl11 (chemokine (C-X-C motif) ligand 11) | 6 | -1.56 | active |
| Nfkb2 | 1 | -0.124 | inactive |
| Nfkb2 | 2 | -1.11 | inactive |
| Nfkb2 | 3 | -1.1 | inactive |
| Nfkb2 | 4 | 0.179 | inactive |
| Nfkb2 | 5 | -0.0163 | inactive |
| Nfkb2 | 6 | -2.08 | active |
| Mapkapk2 (MAP kinase-activated protein kinase 2) | 1 | -2.77 | active |
| Mapkapk2 (MAP kinase-activated protein kinase 2) | 2 | 0.511 | inactive |
| Mapkapk2 (MAP kinase-activated protein kinase 2) | 3 | -1.03 | inactive |
| Mapkapk2 (MAP kinase-activated protein kinase 2) | 4 | -0.0907 | inactive |
| Mapkapk2 (MAP kinase-activated protein kinase 2) | 5 | 1.39 | inactive |
| Mapkapk2 (MAP kinase-activated protein kinase 2) | 6 | 0.022 | inactive |
| Tlr8 (toll-like receptor 8) | 1 | 0.944 | inactive |
| Tlr8 (toll-like receptor 8) | 2 | 0.327 | inactive |
| Tlr8 (toll-like receptor 8) | 3 | -0.651 | inactive |
| Tlr8 (toll-like receptor 8) | 4 | 0.0707 | inactive |
| Tlr8 (toll-like receptor 8) | 5 | -0.468 | inactive |
| Tlr8 (toll-like receptor 8) | 6 | -0.468 | inactive |
| Irak2 (interleukin-1 receptor-associated kinase 2) | 1 | -1.59 | active |
| Irak2 (interleukin-1 receptor-associated kinase 2) | 2 | -1.72 | active |
| Irak2 (interleukin-1 receptor-associated kinase 2) | 3 | -2.35 | active |
| Irak2 (interleukin-1 receptor-associated kinase 2) | 4 | -1.99 | active |
| Irak2 (interleukin-1 receptor-associated kinase 2) | 5 | -2.26 | active |
| Irak2 (interleukin-1 receptor-associated kinase 2) | 6 | -2.02 | active |
| Map3k1 (mitogen-activated protein kinase kinase kinase 1) | 1 | 0.779 | inactive |
| Map3k1 (mitogen-activated protein kinase kinase kinase 1) | 2 | -1.37 | inactive |
| Map3k1 (mitogen-activated protein kinase kinase kinase 1) | 3 | -1.52 | active |
| Map3k1 (mitogen-activated protein kinase kinase kinase 1) | 4 | 0.682 | inactive |
| Map3k1 (mitogen-activated protein kinase kinase kinase 1) | 5 | -0.232 | inactive |
| Map3k1 (mitogen-activated protein kinase kinase kinase 1) | 6 | 0.348 | inactive |
| Mapk3 (mitogen-activated protein kinase 3) | 1 | -1.3 | inactive |
| Mapk3 (mitogen-activated protein kinase 3) | 2 | 0.901 | inactive |
| Mapk3 (mitogen-activated protein kinase 3) | 3 | -0.152 | inactive |
| Mapk3 (mitogen-activated protein kinase 3) | 4 | -0.125 | inactive |
| Mapk3 (mitogen-activated protein kinase 3) | 5 | -0.911 | inactive |
| Mapk3 (mitogen-activated protein kinase 3) | 6 | 0.772 | inactive |
| Fadd (Fas associated via death domain) | 1 | -0.209 | inactive |
| Fadd (Fas associated via death domain) | 2 | -1.3 | inactive |
| Fadd (Fas associated via death domain) | 3 | -1.34 | inactive |
| Fadd (Fas associated via death domain) | 4 | 1.07 | inactive |
| Fadd (Fas associated via death domain) | 5 | -0.511 | inactive |
| Fadd (Fas associated via death domain) | 6 | -0.564 | inactive |
| Ube2n (ubiquitin-conjugating enzyme E2N) | 1 | -0.0544 | inactive |
| Ube2n (ubiquitin-conjugating enzyme E2N) | 2 | -1.02 | inactive |
| Ube2n (ubiquitin-conjugating enzyme E2N) | 3 | -0.111 | inactive |
| Ube2n (ubiquitin-conjugating enzyme E2N) | 4 | -0.259 | inactive |
| Ube2n (ubiquitin-conjugating enzyme E2N) | 5 | -0.836 | inactive |
| Ube2n (ubiquitin-conjugating enzyme E2N) | 6 | -0.421 | inactive |

Called active, of those listed so far:
| gene symbol | reagent no. | mean Tnf reporter z-score | Outcome |
| --- | --- | --- | --- |
| Ikbke (inhibitor of kappaB kinase epsilon) | 2 | -2.19 | active |
| Ikbke (inhibitor of kappaB kinase epsilon) | 6 | -1.81 | active |
| Cxcl11 (chemokine (C-X-C motif) ligand 11) | 5 | -1.55 | active |
| Cxcl11 (chemokine (C-X-C motif) ligand 11) | 6 | -1.56 | active |
| Nfkb2 | 6 | -2.08 | active |
| Mapkapk2 (MAP kinase-activated protein kinase 2) | 1 | -2.77 | active |
| Irak2 (interleukin-1 receptor-associated kinase 2) | 1 | -1.59 | active |
| Irak2 (interleukin-1 receptor-associated kinase 2) | 2 | -1.72 | active |
| Irak2 (interleukin-1 receptor-associated kinase 2) | 3 | -2.35 | active |
| Irak2 (interleukin-1 receptor-associated kinase 2) | 4 | -1.99 | active |
| Irak2 (interleukin-1 receptor-associated kinase 2) | 5 | -2.26 | active |
| Irak2 (interleukin-1 receptor-associated kinase 2) | 6 | -2.02 | active |
| Map3k1 (mitogen-activated protein kinase kinase kinase 1) | 3 | -1.52 | active |

The listing continues:
| gene symbol | reagent no. | mean Tnf reporter z-score | Outcome |
| --- | --- | --- | --- |
| Map3k14 (mitogen-activated protein kinase kinase kinase 14) | 1 | 0.0179 | inactive |
| Map3k14 (mitogen-activated protein kinase kinase kinase 14) | 2 | 1.26 | inactive |
| Map3k14 (mitogen-activated protein kinase kinase kinase 14) | 3 | -0.0756 | inactive |
| Map3k14 (mitogen-activated protein kinase kinase kinase 14) | 4 | -0.0218 | inactive |
| Map3k14 (mitogen-activated protein kinase kinase kinase 14) | 5 | -1.06 | inactive |
| Map3k14 (mitogen-activated protein kinase kinase kinase 14) | 6 | -3.16 | active |
| Fos (Fos proto-oncogene, AP-1 transcription factor subunit) | 1 | -0.14 | inactive |
| Fos (Fos proto-oncogene, AP-1 transcription factor subunit) | 2 | -1.18 | inactive |
| Fos (Fos proto-oncogene, AP-1 transcription factor subunit) | 3 | -0.421 | inactive |
| Fos (Fos proto-oncogene, AP-1 transcription factor subunit) | 4 | 0.518 | inactive |
| Fos (Fos proto-oncogene, AP-1 transcription factor subunit) | 5 | -0.239 | inactive |
| Fos (Fos proto-oncogene, AP-1 transcription factor subunit) | 6 | -0.345 | inactive |
| Ptpn6 (protein tyrosine phosphatase, non-receptor type 6) | 1 | 0.886 | inactive |
| Ptpn6 (protein tyrosine phosphatase, non-receptor type 6) | 2 | 0.692 | inactive |
| Ptpn6 (protein tyrosine phosphatase, non-receptor type 6) | 3 | -0.911 | inactive |
| Ptpn6 (protein tyrosine phosphatase, non-receptor type 6) | 4 | -0.103 | inactive |
| Ptpn6 (protein tyrosine phosphatase, non-receptor type 6) | 5 | -1.08 | inactive |
| Ptpn6 (protein tyrosine phosphatase, non-receptor type 6) | 6 | -2.99 | active |
| Pik3cd | 1 | -0.018 | inactive |
| Pik3cd | 2 | -1.5 | active |
| Pik3cd | 3 | -0.826 | inactive |
| Pik3cd | 4 | -1.4 | inactive |
| Pik3cd | 5 | -0.0342 | inactive |
| Pik3cd | 6 | -0.808 | inactive |
| Ripk1 (receptor (TNFRSF)-interacting serine-threonine kinase 1) | 1 | -0.791 | inactive |
| Ripk1 (receptor (TNFRSF)-interacting serine-threonine kinase 1) | 2 | -0.149 | inactive |
| Ripk1 (receptor (TNFRSF)-interacting serine-threonine kinase 1) | 3 | 0.219 | inactive |
| Ripk1 (receptor (TNFRSF)-interacting serine-threonine kinase 1) | 4 | 0.275 | inactive |
| Ripk1 (receptor (TNFRSF)-interacting serine-threonine kinase 1) | 5 | -0.588 | inactive |
| Ripk1 (receptor (TNFRSF)-interacting serine-threonine kinase 1) | 6 | 1.7 | active |
| Ifnar1 (interferon (alpha and beta) receptor 1) | 1 | -0.661 | inactive |
| Ifnar1 (interferon (alpha and beta) receptor 1) | 2 | -0.417 | inactive |
| Ifnar1 (interferon (alpha and beta) receptor 1) | 3 | -1.36 | inactive |
| Ifnar1 (interferon (alpha and beta) receptor 1) | 4 | 0.929 | inactive |
| Ifnar1 (interferon (alpha and beta) receptor 1) | 5 | -1.86 | active |
| Ifnar1 (interferon (alpha and beta) receptor 1) | 6 | -1.1 | inactive |
| Irak4 (interleukin-1 receptor-associated kinase 4) | 1 | -1.28 | inactive |
| Irak4 (interleukin-1 receptor-associated kinase 4) | 2 | -2.42 | active |
| Irak4 (interleukin-1 receptor-associated kinase 4) | 3 | -1.94 | active |
| Irak4 (interleukin-1 receptor-associated kinase 4) | 4 | -2.39 | active |
| Irak4 (interleukin-1 receptor-associated kinase 4) | 5 | -3.86 | active |
| Irak4 (interleukin-1 receptor-associated kinase 4) | 6 | -1.58 | active |
| Atf2 (activating transcription factor 2) | 1 | -2.48 | active |
| Atf2 (activating transcription factor 2) | 2 | -1.83 | active |
| Atf2 (activating transcription factor 2) | 3 | -0.0815 | inactive |
| Atf2 (activating transcription factor 2) | 4 | 0.388 | inactive |
| Atf2 (activating transcription factor 2) | 5 | -1.81 | active |
| Atf2 (activating transcription factor 2) | 6 | -0.577 | inactive |
| Il1b (interleukin 1 beta) | 1 | 0.605 | inactive |
| Il1b (interleukin 1 beta) | 2 | -1.33 | inactive |
| Il1b (interleukin 1 beta) | 3 | -0.2 | inactive |
| Il1b (interleukin 1 beta) | 4 | 0.787 | inactive |
| Il1b (interleukin 1 beta) | 5 | -0.352 | inactive |
| Il1b (interleukin 1 beta) | 6 | -0.116 | inactive |
